Reference: patent publication US20110263825A1 (OSAKA UNIVERSITY, published 2011)
These are yes or no findings as the source states them, for the method shown. Some entries that bind do so weakly or less than the wild type.

Biological target: T1, human CD20 antigen (human, UniProt P11836 1-297)
T1 construct: whole, on cells; also called human CD20 molecule
T1 sequence (looked up): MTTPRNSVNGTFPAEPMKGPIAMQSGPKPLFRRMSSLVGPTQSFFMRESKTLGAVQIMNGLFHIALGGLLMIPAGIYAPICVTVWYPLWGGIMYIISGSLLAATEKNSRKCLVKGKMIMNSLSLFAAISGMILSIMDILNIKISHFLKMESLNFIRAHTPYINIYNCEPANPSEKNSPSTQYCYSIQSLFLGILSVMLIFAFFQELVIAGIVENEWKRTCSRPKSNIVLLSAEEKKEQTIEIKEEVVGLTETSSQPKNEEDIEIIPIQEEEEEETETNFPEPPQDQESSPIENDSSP
Experiment: affinity on Raji cells, comparison in words

B1: 1K0924 mouse anti-CD20 monoclonal antibody (antibody, mouse IgG2b, V domains shown)
VH: QVQLQQPGAELVKPGASVKMSCKASGYTFTSYNIHWVKQTPGQGLEWIGAIYPGNGDTSYNQKFKGKATLTSDKSSSTAYMQLSSLTSEDSAVYYCARMSTMITGFDYWGQGTTLTVSS
VL: QIVLSQSPAILSASPGEKVTMTCRASSSVSYMHWYQQRPGSSPKPWIYATSNLASGVPARFSGSGSGTSYYFTISRVEAEDAATYYCQQWNSNPPTHGGGTKLEIK
binding: binds
